# Measured values reported in the supplement of paper PMC7666118.
# Sequences of proteins named here, by UniProt entry; tags and fusion partners are left off. A change or cut given only in a name is not applied to a line headed by its entry.
# UniProt P11166: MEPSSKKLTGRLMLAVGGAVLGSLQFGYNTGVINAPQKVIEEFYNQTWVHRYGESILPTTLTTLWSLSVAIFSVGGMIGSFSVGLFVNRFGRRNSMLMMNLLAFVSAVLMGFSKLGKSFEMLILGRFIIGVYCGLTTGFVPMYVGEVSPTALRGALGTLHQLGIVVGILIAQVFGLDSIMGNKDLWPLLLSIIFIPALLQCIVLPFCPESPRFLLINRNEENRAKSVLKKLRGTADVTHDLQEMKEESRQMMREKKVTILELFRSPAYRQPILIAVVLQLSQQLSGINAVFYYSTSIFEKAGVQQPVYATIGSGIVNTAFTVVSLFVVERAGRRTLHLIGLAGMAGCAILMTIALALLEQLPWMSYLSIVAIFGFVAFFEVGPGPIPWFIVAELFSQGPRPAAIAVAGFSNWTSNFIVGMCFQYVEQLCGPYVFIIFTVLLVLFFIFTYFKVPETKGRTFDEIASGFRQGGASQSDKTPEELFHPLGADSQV
# UniProt Q9NVC3: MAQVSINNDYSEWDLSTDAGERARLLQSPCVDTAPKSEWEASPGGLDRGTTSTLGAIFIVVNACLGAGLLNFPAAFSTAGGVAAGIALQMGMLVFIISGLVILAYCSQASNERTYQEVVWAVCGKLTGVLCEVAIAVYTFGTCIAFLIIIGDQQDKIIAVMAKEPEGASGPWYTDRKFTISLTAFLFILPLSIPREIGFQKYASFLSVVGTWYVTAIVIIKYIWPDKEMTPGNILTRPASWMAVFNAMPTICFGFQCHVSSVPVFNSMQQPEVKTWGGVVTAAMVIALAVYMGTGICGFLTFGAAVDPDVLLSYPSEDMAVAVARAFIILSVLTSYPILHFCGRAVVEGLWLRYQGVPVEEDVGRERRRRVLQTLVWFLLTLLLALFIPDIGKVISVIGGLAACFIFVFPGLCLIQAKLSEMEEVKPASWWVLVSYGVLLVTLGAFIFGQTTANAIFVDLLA
# UniProt Q96H20: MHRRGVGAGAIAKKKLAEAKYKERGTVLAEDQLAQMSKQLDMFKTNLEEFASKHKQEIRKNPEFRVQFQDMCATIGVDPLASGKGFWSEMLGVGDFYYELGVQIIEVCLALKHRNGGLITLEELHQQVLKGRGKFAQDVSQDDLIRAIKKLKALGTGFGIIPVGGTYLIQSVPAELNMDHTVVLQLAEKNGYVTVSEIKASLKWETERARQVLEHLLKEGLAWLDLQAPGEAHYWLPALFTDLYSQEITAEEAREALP
# UniProt Q6P4A7: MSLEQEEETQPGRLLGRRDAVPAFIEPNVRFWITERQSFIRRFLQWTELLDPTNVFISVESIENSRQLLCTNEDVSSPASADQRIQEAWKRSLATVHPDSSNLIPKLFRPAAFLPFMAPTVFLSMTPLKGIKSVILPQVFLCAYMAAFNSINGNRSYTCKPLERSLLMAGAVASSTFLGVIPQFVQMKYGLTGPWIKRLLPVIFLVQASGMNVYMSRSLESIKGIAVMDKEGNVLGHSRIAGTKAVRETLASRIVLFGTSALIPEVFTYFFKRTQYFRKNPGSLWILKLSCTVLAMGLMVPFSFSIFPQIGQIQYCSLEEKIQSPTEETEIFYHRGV
# UniProt Q8WXA9: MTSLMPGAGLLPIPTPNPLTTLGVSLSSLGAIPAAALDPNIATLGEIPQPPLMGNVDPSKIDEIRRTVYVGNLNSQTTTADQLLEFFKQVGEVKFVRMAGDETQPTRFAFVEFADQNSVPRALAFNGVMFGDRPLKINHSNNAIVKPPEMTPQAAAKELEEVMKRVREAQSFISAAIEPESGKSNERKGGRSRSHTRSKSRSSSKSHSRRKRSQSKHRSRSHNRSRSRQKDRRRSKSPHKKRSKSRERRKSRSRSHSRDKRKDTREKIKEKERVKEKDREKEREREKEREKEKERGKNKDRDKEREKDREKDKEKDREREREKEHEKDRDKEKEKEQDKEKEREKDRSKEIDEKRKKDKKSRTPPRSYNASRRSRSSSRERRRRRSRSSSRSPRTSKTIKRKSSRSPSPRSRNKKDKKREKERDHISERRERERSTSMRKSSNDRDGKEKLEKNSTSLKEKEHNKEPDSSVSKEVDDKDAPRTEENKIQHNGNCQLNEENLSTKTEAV
# UniProt O43826: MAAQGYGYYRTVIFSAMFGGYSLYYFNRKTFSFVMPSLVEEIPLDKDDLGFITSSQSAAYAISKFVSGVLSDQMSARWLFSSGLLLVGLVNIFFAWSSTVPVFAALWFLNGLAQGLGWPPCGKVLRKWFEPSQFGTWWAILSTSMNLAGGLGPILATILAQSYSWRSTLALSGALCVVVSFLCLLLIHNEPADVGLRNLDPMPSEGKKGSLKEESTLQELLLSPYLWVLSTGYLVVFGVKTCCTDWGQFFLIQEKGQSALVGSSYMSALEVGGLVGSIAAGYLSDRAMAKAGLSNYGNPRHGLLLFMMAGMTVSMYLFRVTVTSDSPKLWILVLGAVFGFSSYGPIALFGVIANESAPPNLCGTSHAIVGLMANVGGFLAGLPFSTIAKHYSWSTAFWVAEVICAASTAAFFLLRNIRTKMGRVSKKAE
# UniProt O60779: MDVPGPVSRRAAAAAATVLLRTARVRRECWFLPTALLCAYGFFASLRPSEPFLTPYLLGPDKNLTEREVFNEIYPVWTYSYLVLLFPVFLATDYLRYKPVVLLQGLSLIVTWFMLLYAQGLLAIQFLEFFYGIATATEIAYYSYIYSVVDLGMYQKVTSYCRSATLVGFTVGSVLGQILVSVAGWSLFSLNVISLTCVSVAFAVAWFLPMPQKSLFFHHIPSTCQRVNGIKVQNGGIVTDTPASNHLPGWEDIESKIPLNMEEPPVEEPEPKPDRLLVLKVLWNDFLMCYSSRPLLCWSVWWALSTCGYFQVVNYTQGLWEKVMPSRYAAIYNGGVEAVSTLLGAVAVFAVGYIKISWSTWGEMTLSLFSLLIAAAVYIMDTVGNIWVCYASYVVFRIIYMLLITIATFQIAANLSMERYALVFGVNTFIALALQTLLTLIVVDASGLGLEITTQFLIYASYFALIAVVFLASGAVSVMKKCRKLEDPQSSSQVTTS
# UniProt Q16629: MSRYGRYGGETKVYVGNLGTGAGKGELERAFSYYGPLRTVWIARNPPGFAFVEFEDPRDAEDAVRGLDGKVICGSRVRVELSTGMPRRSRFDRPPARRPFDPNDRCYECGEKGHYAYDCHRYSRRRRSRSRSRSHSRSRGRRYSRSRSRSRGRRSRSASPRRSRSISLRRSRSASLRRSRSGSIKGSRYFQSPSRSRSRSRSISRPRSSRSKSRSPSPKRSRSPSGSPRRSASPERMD
# UniProt Q9NXE4: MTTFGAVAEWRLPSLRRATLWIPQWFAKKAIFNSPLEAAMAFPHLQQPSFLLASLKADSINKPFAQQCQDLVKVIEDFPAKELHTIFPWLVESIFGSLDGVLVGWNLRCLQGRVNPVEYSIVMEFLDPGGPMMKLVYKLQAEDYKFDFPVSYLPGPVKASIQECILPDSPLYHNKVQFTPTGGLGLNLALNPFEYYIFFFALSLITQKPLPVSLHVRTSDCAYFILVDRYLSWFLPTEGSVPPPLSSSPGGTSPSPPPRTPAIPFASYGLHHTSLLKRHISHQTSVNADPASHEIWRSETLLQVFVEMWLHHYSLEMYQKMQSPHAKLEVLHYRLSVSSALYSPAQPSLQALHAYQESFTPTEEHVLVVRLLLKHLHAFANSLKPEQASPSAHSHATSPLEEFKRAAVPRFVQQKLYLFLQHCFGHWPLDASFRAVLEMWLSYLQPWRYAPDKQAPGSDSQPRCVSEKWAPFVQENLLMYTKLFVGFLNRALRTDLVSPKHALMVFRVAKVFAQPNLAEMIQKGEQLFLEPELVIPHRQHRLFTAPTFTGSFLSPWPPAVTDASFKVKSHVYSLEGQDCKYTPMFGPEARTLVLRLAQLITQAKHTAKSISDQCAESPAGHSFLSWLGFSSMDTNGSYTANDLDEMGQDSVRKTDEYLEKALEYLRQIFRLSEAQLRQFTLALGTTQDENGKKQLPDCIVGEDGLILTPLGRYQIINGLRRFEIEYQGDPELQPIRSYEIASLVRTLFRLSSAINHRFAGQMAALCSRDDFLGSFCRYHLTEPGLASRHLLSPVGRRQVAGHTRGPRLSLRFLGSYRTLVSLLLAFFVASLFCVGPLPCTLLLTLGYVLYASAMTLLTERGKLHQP
# UniProt Q99961: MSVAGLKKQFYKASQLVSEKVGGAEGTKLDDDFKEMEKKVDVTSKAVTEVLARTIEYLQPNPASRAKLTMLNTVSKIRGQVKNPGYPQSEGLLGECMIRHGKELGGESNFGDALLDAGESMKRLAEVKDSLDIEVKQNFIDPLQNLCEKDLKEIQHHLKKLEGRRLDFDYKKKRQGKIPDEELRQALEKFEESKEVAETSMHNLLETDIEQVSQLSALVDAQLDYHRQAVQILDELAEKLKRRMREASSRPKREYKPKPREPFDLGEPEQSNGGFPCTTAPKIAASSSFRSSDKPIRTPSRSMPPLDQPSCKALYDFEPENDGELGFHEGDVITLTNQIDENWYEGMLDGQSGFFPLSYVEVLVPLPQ
# UniProt O76082: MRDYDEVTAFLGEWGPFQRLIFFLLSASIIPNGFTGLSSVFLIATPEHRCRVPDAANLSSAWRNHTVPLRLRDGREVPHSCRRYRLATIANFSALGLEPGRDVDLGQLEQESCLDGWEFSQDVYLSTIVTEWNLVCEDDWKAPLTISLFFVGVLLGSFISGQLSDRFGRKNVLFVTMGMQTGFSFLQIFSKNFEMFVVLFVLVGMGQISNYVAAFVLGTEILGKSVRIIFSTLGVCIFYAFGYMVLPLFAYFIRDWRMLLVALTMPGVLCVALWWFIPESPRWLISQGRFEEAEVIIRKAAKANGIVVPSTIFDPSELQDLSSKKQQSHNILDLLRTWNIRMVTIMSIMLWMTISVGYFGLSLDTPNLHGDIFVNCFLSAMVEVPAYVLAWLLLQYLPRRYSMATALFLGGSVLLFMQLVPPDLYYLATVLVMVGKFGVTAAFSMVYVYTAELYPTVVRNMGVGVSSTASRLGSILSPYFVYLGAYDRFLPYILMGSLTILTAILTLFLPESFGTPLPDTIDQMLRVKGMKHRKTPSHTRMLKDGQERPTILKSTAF
# UniProt Q9NYZ2: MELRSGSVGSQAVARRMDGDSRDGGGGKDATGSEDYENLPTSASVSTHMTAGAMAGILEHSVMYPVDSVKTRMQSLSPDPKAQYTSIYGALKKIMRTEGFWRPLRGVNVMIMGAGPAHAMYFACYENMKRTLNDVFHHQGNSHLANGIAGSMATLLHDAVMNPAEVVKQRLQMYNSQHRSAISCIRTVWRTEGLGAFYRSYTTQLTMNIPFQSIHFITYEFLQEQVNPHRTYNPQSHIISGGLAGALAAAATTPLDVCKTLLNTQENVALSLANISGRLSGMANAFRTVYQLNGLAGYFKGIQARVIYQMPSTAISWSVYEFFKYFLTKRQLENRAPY
# UniProt Q9NXA8: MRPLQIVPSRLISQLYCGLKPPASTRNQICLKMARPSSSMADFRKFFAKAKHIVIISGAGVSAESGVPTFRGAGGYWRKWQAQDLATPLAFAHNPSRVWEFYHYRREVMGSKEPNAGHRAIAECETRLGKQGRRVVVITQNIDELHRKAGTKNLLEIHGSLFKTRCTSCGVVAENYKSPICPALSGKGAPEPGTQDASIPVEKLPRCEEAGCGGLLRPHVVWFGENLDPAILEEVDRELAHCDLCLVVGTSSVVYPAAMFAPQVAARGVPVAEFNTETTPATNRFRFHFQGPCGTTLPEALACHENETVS
# UniProt P01008, whole entry: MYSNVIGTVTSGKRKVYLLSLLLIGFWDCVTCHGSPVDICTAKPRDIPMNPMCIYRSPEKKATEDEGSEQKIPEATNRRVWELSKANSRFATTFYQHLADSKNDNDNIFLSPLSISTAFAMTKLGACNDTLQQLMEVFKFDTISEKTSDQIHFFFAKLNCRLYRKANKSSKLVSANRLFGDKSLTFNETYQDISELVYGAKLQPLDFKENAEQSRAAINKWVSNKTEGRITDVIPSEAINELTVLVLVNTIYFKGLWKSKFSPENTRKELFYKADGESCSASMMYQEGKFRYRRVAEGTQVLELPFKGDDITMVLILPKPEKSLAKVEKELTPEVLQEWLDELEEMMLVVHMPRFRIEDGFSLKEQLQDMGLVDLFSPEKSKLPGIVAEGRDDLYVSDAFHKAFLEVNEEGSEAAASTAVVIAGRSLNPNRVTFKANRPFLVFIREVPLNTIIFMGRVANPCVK
# UniProt P48595: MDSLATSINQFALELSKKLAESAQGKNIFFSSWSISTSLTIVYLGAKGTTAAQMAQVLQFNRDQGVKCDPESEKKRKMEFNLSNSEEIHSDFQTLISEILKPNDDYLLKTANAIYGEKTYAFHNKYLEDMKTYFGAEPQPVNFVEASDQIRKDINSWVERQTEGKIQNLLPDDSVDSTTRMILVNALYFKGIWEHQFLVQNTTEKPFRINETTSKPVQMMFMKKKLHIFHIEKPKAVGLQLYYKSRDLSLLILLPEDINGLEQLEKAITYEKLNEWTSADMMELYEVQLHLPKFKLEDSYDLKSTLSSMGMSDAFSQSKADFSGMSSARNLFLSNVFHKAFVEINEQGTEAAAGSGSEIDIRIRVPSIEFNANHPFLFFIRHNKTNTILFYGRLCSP
# The list shows a part of the results.
# Compound: COc1ccc(Cn2ccc3cc(C)c(C(=O)NO)cc32)cc1
# Assay: dose-dependent thermal stabilisation call (2D-TPP, DLPTP, 10% FDR) (binary (1 = stabilised)); higher = stabilised by the compound
# Settings: system: HL-60 intact cells; concentration range 0.04-10 µM
# Protocol: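 2D thermal proteome profiling in intact HL-60 cells treated with BRD-3811 (0, 0.04, 0.29, 2, 10 uM) for 90 min at 37 C, then heated 3 min at one of 12 temperatures (42-63.9 C). Soluble protein was quantified by TMT10 MS. The value is the DLPTP call of the paper: dose-dependent thermal stabilisation over all temperatures at 10% FDR (F-test of a dose-response against a flat model); one experiment, one call per tested protein.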
row,Target,dose-dependent thermal stabilisation call
1,SLC2A1 (UniProt P11166),inactive: 0
2,SLC38A7 (UniProt Q9NVC3),inactive: 0
3,SIL1 (UniProt Q9H173),inactive: 0
4,SFRS14 (UniProt Q8IX01),inactive: 0
5,SNX1 (UniProt Q13596),inactive: 0
6,SNRPB (UniProt P14678),inactive: 0
7,SNF8 (UniProt Q96H20),inactive: 0
8,SFXN4 (UniProt Q6P4A7),inactive: 0
9,SFRS12 (UniProt Q8WXA9),inactive: 0
10,SF3B5 (UniProt Q9BWJ5),inactive: 0
11,SLCO4C1 (UniProt Q6ZQN7),inactive: 0
12,SLC37A4 (UniProt O43826),inactive: 0
13,SHMT2 (UniProt P34897),inactive: 0
14,SLC9A1 (UniProt P19634),inactive: 0
15,SLC19A2 (UniProt O60779),inactive: 0
16,SFRS7 (UniProt Q16629),inactive: 0
17,SMPD4 (UniProt Q9NXE4),inactive: 0
18,SLC7A6 (UniProt Q92536),inactive: 0

# Single values from above.
# Value of SNRPB (UniProt P14678) under dose-dependent thermal stabilisation call: inactive: 0
# Value of SFRS7 (UniProt Q16629) under dose-dependent thermal stabilisation call: inactive: 0

# (cont.)

row,Target,dose-dependent thermal stabilisation call
1,SMC1A (UniProt Q14683),inactive: 0
2,SNRPD2 (UniProt P62316),inactive: 0
3,SH3GL1 (UniProt Q99961),inactive: 0
4,SLC22A5 (UniProt O76082),inactive: 0
5,SLC25A37 (UniProt Q9NYZ2),inactive: 0
6,SFRS4 (UniProt Q08170),inactive: 0
7,SLC25A17 (UniProt O43808),inactive: 0
8,SLC25A28 (UniProt Q96A46),inactive: 0
9,SLC30A9 (UniProt Q6PML9),inactive: 0
10,SIRT5 (UniProt Q9NXA8),inactive: 0
11,SLC27A4 (UniProt Q6P1M0),inactive: 0
12,SERPINC1 (UniProt P01008),inactive: 0
13,SF3B14 (UniProt Q9Y3B4),inactive: 0
14,SMPDL3B (UniProt Q92485),inactive: 0
15,SLC41A3 (UniProt Q96GZ6),inactive: 0
16,SLC25A44 (UniProt Q96H78),inactive: 0
17,SKAP2 (UniProt O75563),inactive: 0
18,SERPINB10 (UniProt P48595),inactive: 0
